Some of the results follow. Many values rest on one well or one pass, so single values are uncertain.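 Cells were imaged in 1,536-well plates, and nuclei stained with an antibody against cleaved PARP were counted against all DNA-stained nuclei to give the apoptosis fraction. Screening doses were chosen to leave most cells alive, and resting and induced cleaved-PARP levels differ strongly between cell lines.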
Experiments:
Test in all cases: cleaved PARP positive nuclei fraction relative to DMSO control; melanoma cells; higher = more apoptosis
Details in all cases: library dose: low library concentration; 72 h
501Mel = test system: 501Mel
A101D = test system: A101D
A2058 = test system: A2058
A375 = test system: A375
C32 = test system: C32
CBRC008 = test system: CBRC008 (line from a melanoma biopsy)
CBRC014 = test system: CBRC014 (line from a melanoma biopsy)
CBRC016 = test system: CBRC016 (line from a melanoma biopsy)
CBRC017 = test system: CBRC017 (line from a melanoma biopsy)
CBRC034 = test system: CBRC034 (line from a melanoma biopsy)
COLO792 = test system: COLO792
COLO800 = test system: COLO800
COLO829 = test system: COLO829
G361 = test system: G361
IPC-298 = test system: IPC-298
IST-MEL1 = test system: IST-MEL1
LB2518-MEL = test system: LB2518-MEL
LOXIMVI = test system: LOXIMVI
MEL-HO = test system: MEL-HO
CBRC013 = test system: CBRC013 (line from a melanoma biopsy)

Row | Compound | cleaved PARP positive nuclei fraction (501Mel) [%] | cleaved PARP positive nuclei fraction (A101D) [%] | cleaved PARP positive nuclei fraction (A2058) [%] | cleaved PARP positive nuclei fraction (A375) [%] | cleaved PARP positive nuclei fraction (C32) [%] | cleaved PARP positive nuclei fraction (CBRC008) [%] | cleaved PARP positive nuclei fraction (CBRC014) [%] | cleaved PARP positive nuclei fraction (CBRC016) [%] | cleaved PARP positive nuclei fraction (CBRC017) [%] | cleaved PARP positive nuclei fraction (CBRC034) [%] | cleaved PARP positive nuclei fraction (COLO792) [%] | cleaved PARP positive nuclei fraction (COLO800) [%] | cleaved PARP positive nuclei fraction (COLO829) [%] | cleaved PARP positive nuclei fraction (G361) [%] | cleaved PARP positive nuclei fraction (IPC-298) [%] | cleaved PARP positive nuclei fraction (IST-MEL1) [%] | cleaved PARP positive nuclei fraction (LB2518-MEL) [%] | cleaved PARP positive nuclei fraction (LOXIMVI) [%] | cleaved PARP positive nuclei fraction (MEL-HO) [%] | cleaved PARP positive nuclei fraction (CBRC013) [%]
1 | C[C@@H](N)c1ccc(C(=O)Nc2ccnc3[nH]ccc23)cc1 + O=C(O)c1ccc2c(c1)nc(Nc1cccc(Cl)c1)c1ccncc12 [CX4945] (first compound 0.4 µM, partner dose 0.4 µM) | 119 | 103 | 162 | 134 | 81.9 | 169 | 166 | 188 | 219 | 326 | 76.7 | 58.9 | 124 | 168 | 30 | 65.3 | 153 | 81.2 | 77.6 | 
2 | NC1(c2ccc(-c3nc4ccn5c(=O)[nH]nc5c4cc3-c3ccccc3)cc2)CCC1 + C=CCn1c(=O)c2cnc(Nc3ccc(N4CCN(C)CC4)cc3)nc2n1-c1cccc(C(C)(C)O)n1 [MK1775] (first compound 0.4 µM, partner dose 0.02 µM) | 61 | 56.5 | 163 | 61.4 | 49.5 | 55.9 | 64.3 | 107 | 104 |  | 161 | 42.3 | 133 | 101 | 96.7 | 67.6 | 109 | 62.7 | 161 | 102
3 | CS(=O)(=O)c1ccc(C(=O)Nc2ccc(Cl)c(-c3ccccn3)c2)c(Cl)c1 [vismodegib] + O=C(Nc1cccc(Cl)c1)Nc1ncc(CCNc2ncnc3ccsc23)s1 [SNS314] (first compound 1 µM, partner dose 0.0008 µM) | 30 | 80.6 | 101 | 37 | 65 | 54.5 | 82.9 | 37.3 | 658 |  | 90.7 | 108 | 72.5 | 93.9 | 32.2 | 172 | 141 | 60.9 | 63.6 | 99.8
4 | CC1(C)CCC(c2ccc(Cl)cc2)=C(CN2CCN(c3ccc(C(=O)NS(=O)(=O)c4ccc(N[C@H](CCN5CCOCC5)CSc5ccccc5)c(S(=O)(=O)C(F)(F)F)c4)cc3)CC2)C1 + COCC[n+]1c2c(n(Cc3cnccn3)c1C)C(=O)c1ccccc1C2=O [YM155] (first compound 0.4 µM, partner dose 0.0004 µM) | 155 | 103 | 90.2 | 506 | 131 | 736 | 467 | 735 | 691 | 254 | 347 | 189 | 81.3 | 232 | 138 | 332 | 192 | 595 | 90 | 
5 | C[C@]1(O)C[C@@H](c2nc(-c3ccc4ccc(-c5ccccc5)nc4c3)c3c(N)nccn32)C1 + C#Cc1cccc(Nc2ncnc3cc(OCCOC)c(OCCOC)cc23)c1 [erlotinib] (first compound 0.4 µM, partner dose 0.8 µM) | 111 | 201 | 101 | 618 | 72.4 | 170 | 116 | 129 | 90.3 | 109 | 83.3 | 71.7 | 88.4 | 81.2 | 183 | 124 | 212 | 84.6 | 87.3 | 
6 | Cn1cnc2c(F)c(Nc3ccc(Br)cc3Cl)c(C(=O)NOCCO)cc21 [selumetinib] + Cn1nnc2c(C(N)=O)ncn2c1=O [temozolomide] (first compound 0.015 µM, partner dose 2 µM) | 645 | 99 | 81.2 | 198 | 84.4 | 118 | 85.1 | 156 | 107 | 222 | 113 | 115 | 70.3 | 192 | 70.8 | 139 | 133 | 94.7 | 122 | 
7 | NC1(c2ccc(-c3nc4ccn5c(=O)[nH]nc5c4cc3-c3ccccc3)cc2)CCC1 + NC(=O)Nc1cc(-c2cccc(F)c2)sc1C(=O)N[C@H]1CCCNC1 [AZD7762] (first compound 0.4 µM, partner dose 0.02 µM) | 66 | 196 | 1090 | 115 | 61.4 | 89.5 | 75.1 | 85.9 | 91.2 |  | 133 | 45.7 | 108 | 66.4 | 48.2 | 87 | 367 | 45.7 | 75.7 | 86.9
8 | Cn1sc(=O)n(Cc2ccccc2)c1=O + O=C(Nc1cccc(Cl)c1)Nc1ncc(CCNc2ncnc3ccsc23)s1 [SNS314] (first compound 0.4 µM, partner dose 0.0008 µM) | 152 | 19.3 | 104 | 96.4 | 44.8 | 133 | 89.8 | 107 | 82.3 |  | 130 | 60.8 | 155 | 136 | 42 | 182 | 143 | 44.1 | 148 | 109
